PubChem BioAssay AID504764 | Drosophila RNAi Screening Center | 2011
The deposit covers about 22,000 reagents; below is a random part of those that have a named target and a result. In the full data, 403 (1.9%) got an active call. 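Unnormalised raw counts per well; ratio z-scores behind the hit calls and whether each hit raises or lowers signal are not deposited.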 Not given: the amount of reagent.

Test: 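Genome-wide screen for regulators of Notch-driven gene expression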 (primary screen)
Cell system: Drosophila Kc167 cells
Reagent: long dsRNA against Drosophila genes
Timing: about 5 days (4 days dsRNA, then 24 h after transfection)
Challenge: transfection of constitutively active membrane-tethered Notch lacking the extracellular domain, read 24 h later
Read-out: 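Light from a Notch-responsive E(spl)m3 luciferase reporter under active Notch, with control-promoter and no-Notch reporter wells to normalise; raw counts from paired wells a and b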
Reading the numbers: induced reporter light, run 1, well a and induced reporter light, run 1, well b: higher = more light from the Notch target reporter with active Notch; control promoter light, run 1, well a and control promoter light, run 1, well b: higher = more light from the viral control promoter (cell number, transfection, viability); uninduced reporter light, run 1, well a: higher = more light from the Notch target reporter without active Notch
Call rule: 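Wells with low control signal or poorly matching duplicates excluded; duplicates averaged; per source plate, z beyond ±2 for induced/control log2 ratio or beyond ±1.8 for induced/uninduced marks a hit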
Calls: active = modifier hit (raised or lowered Notch signal); inactive = not a hit

CG13160 — induced reporter light, run 1, well a = 1.31e5; induced reporter light, run 1, well b = 1.44e5; control promoter light, run 1, well a = 1.79e5; control promoter light, run 1, well b = 1.78e5; uninduced reporter light, run 1, well a = 11825; activity call = inactive
Smg5 (Smg5 nonsense mediated mRNA decay factor) — induced reporter light, run 1, well a = 2.21e5; induced reporter light, run 1, well b = 2.46e5; control promoter light, run 1, well a = 2.70e5; control promoter light, run 1, well b = 3.11e5; uninduced reporter light, run 1, well a = 17045; activity call = inactive
CG13950 — induced reporter light, run 1, well a = 1.36e5; induced reporter light, run 1, well b = 1.14e5; control promoter light, run 1, well a = 1.32e5; control promoter light, run 1, well b = 69915; uninduced reporter light, run 1, well a = 11800; activity call = inactive
CG8003 — induced reporter light, run 1, well a = 1.11e5; induced reporter light, run 1, well b = 1.11e5; control promoter light, run 1, well a = 62130; control promoter light, run 1, well b = 35385; uninduced reporter light, run 1, well a = 10080; activity call = inactive
Jhbp4 (Juvenile hormone binding protein 4) — induced reporter light, run 1, well a = 2.39e5; induced reporter light, run 1, well b = 2.14e5; control promoter light, run 1, well a = 2.35e5; control promoter light, run 1, well b = 2.18e5; uninduced reporter light, run 1, well a = 18485; activity call = inactive
lky (leaky) — induced reporter light, run 1, well a = 1.01e5; induced reporter light, run 1, well b = 1.06e5; control promoter light, run 1, well a = 88775; control promoter light, run 1, well b = 1.09e5; uninduced reporter light, run 1, well a = 9405; activity call = inactive
Grip128 — induced reporter light, run 1, well a = 1.12e5; induced reporter light, run 1, well b = 1.23e5; control promoter light, run 1, well a = 1.49e5; control promoter light, run 1, well b = 1.24e5; uninduced reporter light, run 1, well a = 11555; activity call = inactive
Grl36a (Gustatory receptor-like 36a) — activity call = inactive
Klp54D (Kinesin-like protein at 54D) — induced reporter light, run 1, well a = 1.20e5; induced reporter light, run 1, well b = 86505; control promoter light, run 1, well a = 1.04e5; control promoter light, run 1, well b = 1.30e5; uninduced reporter light, run 1, well a = 13405; activity call = inactive
CG34007 — induced reporter light, run 1, well a = 76960; induced reporter light, run 1, well b = 81735; control promoter light, run 1, well a = 75075; control promoter light, run 1, well b = 87425; uninduced reporter light, run 1, well a = 9535; activity call = inactive

Next part; the last 3 above are carried over.
Grl36a (Gustatory receptor-like 36a) — activity call = inactive
Klp54D (Kinesin-like protein at 54D) — induced reporter light, run 1, well a = 1.20e5; induced reporter light, run 1, well b = 86505; control promoter light, run 1, well a = 1.04e5; control promoter light, run 1, well b = 1.30e5; uninduced reporter light, run 1, well a = 13405; activity call = inactive
CG34007 — induced reporter light, run 1, well a = 76960; induced reporter light, run 1, well b = 81735; control promoter light, run 1, well a = 75075; control promoter light, run 1, well b = 87425; uninduced reporter light, run 1, well a = 9535; activity call = inactive
kkv (krotzkopf verkehrt) — induced reporter light, run 1, well a = 1.05e5; induced reporter light, run 1, well b = 1.47e5; control promoter light, run 1, well a = 68125; control promoter light, run 1, well b = 74255; uninduced reporter light, run 1, well a = 8885; activity call = inactive
CG13299 — induced reporter light, run 1, well a = 2.12e5; induced reporter light, run 1, well b = 1.51e5; control promoter light, run 1, well a = 1.81e5; control promoter light, run 1, well b = 2.00e5; uninduced reporter light, run 1, well a = 6670; activity call = inactive
iotaTry (iotaTrypsin) — induced reporter light, run 1, well a = 99000; induced reporter light, run 1, well b = 96945; control promoter light, run 1, well a = 1.24e5; control promoter light, run 1, well b = 1.13e5; uninduced reporter light, run 1, well a = 8490; activity call = inactive
TfIIEbeta (Transcription factor IIEbeta) — induced reporter light, run 1, well a = 77870; induced reporter light, run 1, well b = 1.57e5; control promoter light, run 1, well a = 1.82e5; control promoter light, run 1, well b = 1.61e5; uninduced reporter light, run 1, well a = 9925; activity call = inactive
Claspin — induced reporter light, run 1, well a = 1.97e5; induced reporter light, run 1, well b = 2.04e5; control promoter light, run 1, well a = 3.12e5; control promoter light, run 1, well b = 3.31e5; uninduced reporter light, run 1, well a = 13470; activity call = inactive
Gr94a (Gustatory receptor 94a) — induced reporter light, run 1, well a = 1.08e5; induced reporter light, run 1, well b = 89185; control promoter light, run 1, well a = 1.54e5; control promoter light, run 1, well b = 1.13e5; uninduced reporter light, run 1, well a = 11380; activity call = inactive
RNaseZ (Ribonuclease Z) — induced reporter light, run 1, well a = 1.74e5; induced reporter light, run 1, well b = 1.11e5; control promoter light, run 1, well a = 1.94e5; control promoter light, run 1, well b = 1.89e5; uninduced reporter light, run 1, well a = 14800; activity call = inactive
Galk (Galactokinase) — induced reporter light, run 1, well a = 1.03e5; induced reporter light, run 1, well b = 92925; control promoter light, run 1, well a = 80635; control promoter light, run 1, well b = 31905; uninduced reporter light, run 1, well a = 9790; activity call = inactive
CG7430 — induced reporter light, run 1, well a = 90050; induced reporter light, run 1, well b = 55120; control promoter light, run 1, well a = 48915; control promoter light, run 1, well b = 50270; uninduced reporter light, run 1, well a = 5240; activity call = inactive
CG34199 — induced reporter light, run 1, well a = 76410; induced reporter light, run 1, well b = 83655; control promoter light, run 1, well a = 1.10e5; control promoter light, run 1, well b = 99905; uninduced reporter light, run 1, well a = 6780; activity call = inactive
CR9337 (pseudo) — induced reporter light, run 1, well a = 1.09e5; induced reporter light, run 1, well b = 1.34e5; control promoter light, run 1, well a = 90905; control promoter light, run 1, well b = 94080; uninduced reporter light, run 1, well a = 6210; activity call = inactive
TwdlJ (TweedleJ) — induced reporter light, run 1, well a = 1.38e5; induced reporter light, run 1, well b = 1.60e5; control promoter light, run 1, well a = 2.05e5; control promoter light, run 1, well b = 1.96e5; uninduced reporter light, run 1, well a = 11680; activity call = inactive
Gos28 (Golgi SNARE, 28 kDa) — induced reporter light, run 1, well a = 1.97e5; induced reporter light, run 1, well b = 1.80e5; control promoter light, run 1, well a = 1.61e5; control promoter light, run 1, well b = 1.74e5; uninduced reporter light, run 1, well a = 13315; activity call = inactive
Sf3b6 (Splicing factor 3b subunit 6) — induced reporter light, run 1, well a = 1.03e5; induced reporter light, run 1, well b = 1.04e5; control promoter light, run 1, well a = 68425; control promoter light, run 1, well b = 64210; uninduced reporter light, run 1, well a = 5510; activity call = inactive
